Laboratory results reported in the supplement of paper PMC10849652.
Some of the results follow.

Protein sequences, listed by entry. Tags and fused reporters are not part of them. Lines headed by an entry give the natural chain unless they say otherwise; changes in a name come on top.
UniProt Q99797: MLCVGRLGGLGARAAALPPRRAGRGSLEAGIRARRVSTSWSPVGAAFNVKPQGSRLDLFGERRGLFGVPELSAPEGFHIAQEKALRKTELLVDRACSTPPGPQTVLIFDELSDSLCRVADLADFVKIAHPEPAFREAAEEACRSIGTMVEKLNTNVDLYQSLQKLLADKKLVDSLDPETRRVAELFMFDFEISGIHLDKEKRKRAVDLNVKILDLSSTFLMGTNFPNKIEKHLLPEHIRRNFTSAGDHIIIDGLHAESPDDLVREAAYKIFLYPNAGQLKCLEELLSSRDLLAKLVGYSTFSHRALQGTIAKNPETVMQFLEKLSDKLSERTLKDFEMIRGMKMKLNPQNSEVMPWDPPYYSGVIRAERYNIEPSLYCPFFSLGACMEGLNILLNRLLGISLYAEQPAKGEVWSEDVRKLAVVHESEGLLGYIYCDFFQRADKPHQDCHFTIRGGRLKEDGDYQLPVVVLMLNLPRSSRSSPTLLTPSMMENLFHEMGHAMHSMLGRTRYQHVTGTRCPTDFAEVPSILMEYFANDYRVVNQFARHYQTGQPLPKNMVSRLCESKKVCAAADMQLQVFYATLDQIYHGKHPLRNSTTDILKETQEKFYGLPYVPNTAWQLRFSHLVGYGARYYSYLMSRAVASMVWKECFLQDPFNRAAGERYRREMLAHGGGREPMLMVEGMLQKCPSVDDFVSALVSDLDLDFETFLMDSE
UniProt Q9NXC5: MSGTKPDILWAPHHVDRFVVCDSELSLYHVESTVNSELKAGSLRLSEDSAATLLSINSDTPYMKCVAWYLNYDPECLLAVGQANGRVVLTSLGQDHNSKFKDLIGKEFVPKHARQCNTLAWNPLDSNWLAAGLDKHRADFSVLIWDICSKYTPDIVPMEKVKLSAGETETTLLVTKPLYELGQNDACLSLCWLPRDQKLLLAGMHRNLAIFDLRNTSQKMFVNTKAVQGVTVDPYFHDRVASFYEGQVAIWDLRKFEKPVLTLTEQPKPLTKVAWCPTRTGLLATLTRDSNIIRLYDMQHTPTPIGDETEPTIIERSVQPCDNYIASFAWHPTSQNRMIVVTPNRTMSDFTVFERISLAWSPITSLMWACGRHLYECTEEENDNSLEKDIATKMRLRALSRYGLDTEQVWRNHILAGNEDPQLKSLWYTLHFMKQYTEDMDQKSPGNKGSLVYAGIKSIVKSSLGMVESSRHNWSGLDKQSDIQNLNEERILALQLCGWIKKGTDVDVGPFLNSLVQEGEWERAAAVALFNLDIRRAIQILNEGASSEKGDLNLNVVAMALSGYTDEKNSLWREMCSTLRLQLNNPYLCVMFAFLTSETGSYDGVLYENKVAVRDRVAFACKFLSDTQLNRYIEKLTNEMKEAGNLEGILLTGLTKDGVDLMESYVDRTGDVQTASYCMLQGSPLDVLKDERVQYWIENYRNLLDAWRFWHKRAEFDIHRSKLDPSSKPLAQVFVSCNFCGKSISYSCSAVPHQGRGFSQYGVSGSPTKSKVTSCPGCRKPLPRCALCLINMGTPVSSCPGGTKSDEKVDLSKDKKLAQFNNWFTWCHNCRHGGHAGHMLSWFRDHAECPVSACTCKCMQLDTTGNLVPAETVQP
UniProt Q96EN8: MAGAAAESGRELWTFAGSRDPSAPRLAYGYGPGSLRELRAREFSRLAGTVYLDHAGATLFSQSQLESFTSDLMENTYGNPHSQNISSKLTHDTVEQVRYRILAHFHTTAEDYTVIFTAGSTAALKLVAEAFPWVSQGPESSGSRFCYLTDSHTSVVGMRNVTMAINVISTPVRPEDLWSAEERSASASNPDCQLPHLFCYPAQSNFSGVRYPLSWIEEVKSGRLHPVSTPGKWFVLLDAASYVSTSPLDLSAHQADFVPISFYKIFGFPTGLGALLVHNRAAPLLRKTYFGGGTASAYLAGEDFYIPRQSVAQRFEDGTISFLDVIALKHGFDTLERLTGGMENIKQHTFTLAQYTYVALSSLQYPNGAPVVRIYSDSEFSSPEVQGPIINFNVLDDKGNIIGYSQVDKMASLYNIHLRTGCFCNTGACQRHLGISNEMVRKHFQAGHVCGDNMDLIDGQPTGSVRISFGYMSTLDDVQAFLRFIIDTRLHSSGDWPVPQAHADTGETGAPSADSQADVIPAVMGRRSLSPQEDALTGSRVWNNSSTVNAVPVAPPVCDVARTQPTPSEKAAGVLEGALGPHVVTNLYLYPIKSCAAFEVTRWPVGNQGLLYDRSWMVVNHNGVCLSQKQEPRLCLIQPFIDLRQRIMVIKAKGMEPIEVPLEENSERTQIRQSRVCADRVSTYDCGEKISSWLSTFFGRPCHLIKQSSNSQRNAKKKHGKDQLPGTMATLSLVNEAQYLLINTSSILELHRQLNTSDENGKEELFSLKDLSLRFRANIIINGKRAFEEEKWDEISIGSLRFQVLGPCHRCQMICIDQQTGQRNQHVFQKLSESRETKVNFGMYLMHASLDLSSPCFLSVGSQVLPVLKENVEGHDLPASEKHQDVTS
UniProt Q8IYU8: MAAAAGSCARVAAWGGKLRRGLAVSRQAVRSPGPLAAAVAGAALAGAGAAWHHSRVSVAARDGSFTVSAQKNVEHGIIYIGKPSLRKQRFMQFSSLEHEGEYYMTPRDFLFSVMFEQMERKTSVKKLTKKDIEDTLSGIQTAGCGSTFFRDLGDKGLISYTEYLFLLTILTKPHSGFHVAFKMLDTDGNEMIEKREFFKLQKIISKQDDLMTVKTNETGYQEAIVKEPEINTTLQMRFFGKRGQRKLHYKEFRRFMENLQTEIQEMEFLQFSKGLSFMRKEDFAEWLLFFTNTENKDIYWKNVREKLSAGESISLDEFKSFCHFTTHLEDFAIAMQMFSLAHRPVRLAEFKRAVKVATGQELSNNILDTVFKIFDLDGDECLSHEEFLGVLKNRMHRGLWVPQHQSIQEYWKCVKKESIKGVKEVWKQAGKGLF
UniProt Q9UBU8, whole entry, looked up: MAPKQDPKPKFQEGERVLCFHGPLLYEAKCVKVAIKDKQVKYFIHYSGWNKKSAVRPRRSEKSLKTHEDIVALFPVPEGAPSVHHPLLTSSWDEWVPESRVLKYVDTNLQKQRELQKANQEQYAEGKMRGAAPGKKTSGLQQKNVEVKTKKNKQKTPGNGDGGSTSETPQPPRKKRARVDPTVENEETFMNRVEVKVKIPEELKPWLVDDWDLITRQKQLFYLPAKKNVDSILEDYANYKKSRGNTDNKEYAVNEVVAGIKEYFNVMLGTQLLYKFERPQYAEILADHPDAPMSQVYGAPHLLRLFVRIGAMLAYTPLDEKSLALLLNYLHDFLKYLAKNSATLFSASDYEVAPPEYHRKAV
UniProt P10620: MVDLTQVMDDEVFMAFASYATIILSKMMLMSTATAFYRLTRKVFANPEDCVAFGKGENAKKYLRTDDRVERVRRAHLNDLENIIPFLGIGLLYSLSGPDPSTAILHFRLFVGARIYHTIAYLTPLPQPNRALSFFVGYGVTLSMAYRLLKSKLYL
UniProt Q9BQP7: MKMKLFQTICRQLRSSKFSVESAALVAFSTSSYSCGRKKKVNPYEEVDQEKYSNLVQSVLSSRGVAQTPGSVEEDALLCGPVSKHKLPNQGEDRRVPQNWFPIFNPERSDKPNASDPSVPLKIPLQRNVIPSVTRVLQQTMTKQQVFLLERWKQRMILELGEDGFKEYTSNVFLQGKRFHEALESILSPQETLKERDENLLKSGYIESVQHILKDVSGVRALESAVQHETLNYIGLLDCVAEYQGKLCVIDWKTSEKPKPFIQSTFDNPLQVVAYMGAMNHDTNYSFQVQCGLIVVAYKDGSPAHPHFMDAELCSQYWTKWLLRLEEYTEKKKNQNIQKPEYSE
UniProt Q8TAP9: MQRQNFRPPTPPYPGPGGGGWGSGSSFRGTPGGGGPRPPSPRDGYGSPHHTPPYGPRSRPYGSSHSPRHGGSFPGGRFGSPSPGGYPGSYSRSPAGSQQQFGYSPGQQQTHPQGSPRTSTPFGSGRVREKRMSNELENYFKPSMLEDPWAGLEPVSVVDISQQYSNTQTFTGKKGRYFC
UniProt Q9Y6X9: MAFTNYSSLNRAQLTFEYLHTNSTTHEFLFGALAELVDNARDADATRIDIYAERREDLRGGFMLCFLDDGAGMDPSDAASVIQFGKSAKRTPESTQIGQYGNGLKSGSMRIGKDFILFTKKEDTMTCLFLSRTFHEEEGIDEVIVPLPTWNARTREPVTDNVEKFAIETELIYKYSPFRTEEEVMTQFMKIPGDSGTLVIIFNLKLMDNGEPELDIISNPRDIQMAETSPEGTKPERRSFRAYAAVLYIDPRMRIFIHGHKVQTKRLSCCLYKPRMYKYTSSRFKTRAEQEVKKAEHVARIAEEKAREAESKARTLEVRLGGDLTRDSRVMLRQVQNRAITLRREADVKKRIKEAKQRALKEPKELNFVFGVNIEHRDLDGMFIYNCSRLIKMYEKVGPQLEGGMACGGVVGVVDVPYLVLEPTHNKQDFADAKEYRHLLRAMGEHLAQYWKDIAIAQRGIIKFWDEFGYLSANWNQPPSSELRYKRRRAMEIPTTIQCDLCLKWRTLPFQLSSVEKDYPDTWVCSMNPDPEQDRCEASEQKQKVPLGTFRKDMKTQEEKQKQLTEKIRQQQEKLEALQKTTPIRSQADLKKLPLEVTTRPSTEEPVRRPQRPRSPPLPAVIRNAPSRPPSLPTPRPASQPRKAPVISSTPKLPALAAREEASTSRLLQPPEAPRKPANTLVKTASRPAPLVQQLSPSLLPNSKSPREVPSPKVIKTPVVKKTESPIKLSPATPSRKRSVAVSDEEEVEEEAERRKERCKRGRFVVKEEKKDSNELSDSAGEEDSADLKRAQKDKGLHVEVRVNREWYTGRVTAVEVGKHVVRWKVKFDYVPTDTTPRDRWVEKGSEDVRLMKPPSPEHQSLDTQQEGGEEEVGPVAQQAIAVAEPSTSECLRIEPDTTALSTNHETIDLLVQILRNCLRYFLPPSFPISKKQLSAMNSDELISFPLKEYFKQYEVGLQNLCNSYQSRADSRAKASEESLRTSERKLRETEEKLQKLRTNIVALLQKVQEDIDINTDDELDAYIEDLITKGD
UniProt Q8WV92, whole entry, looked up: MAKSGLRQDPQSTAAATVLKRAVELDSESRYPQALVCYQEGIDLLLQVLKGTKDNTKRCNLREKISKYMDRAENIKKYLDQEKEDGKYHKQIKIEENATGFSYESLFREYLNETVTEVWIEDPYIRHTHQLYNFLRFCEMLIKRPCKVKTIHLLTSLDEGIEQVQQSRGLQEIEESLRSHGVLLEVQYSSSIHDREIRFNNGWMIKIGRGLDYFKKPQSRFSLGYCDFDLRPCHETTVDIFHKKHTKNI
UniProt Q96BX8: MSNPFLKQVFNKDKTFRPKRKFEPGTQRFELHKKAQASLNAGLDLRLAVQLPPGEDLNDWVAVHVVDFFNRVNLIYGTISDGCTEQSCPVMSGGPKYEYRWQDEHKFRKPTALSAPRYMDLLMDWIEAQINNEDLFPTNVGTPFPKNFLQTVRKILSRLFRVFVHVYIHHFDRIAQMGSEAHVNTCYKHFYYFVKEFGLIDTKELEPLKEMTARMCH
UniProt Q9NPA3, whole entry, looked up: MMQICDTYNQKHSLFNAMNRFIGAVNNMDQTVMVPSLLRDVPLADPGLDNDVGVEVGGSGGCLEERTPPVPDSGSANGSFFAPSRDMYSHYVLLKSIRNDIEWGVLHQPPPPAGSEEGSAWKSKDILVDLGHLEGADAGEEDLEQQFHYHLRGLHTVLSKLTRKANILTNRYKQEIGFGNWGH

Experiments:
Assay in all cases: log2 fold change, soluble protein after heating vs DMSO (PISA); higher = thermal stabilisation; K562 lysate, 10 uM; active = over 0.2 and 3.5 SD of the protein, either way, in both replicates (recomputed)
alvocidib = compound: CN1CC[C@H](c2c(O)cc(O)c3c(=O)cc(-c4ccccc4Cl)oc23)[C@H](O)C1 [alvocidib]
Outline: (§1)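 A 30 min treatment with 10 μM compound was applied to crude K562 extract at 1 mg/mL protein in PBS pH 7.4 with 1 mM MgCl2. Heating for 3 min spanned 48°C-58°C, after which aliquots were pooled, adjusted to 0.5% NP-40 at 4°C and spun at 21,000xg for 90 min. TMTpro 16plex LC-MS/MS of the supernatant, with channel sums equalised, gave values recorded as log-two fold change in thermal stability against solvent controls, from duplicates.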

Tubastatin A = compound: CN1CCc2c(c3ccccc3n2Cc2ccc(C(=O)NO)cc2)C1 [Tubastatin A]
Outline: as §1

[1] = compound: CNC(=O)C1=CC=CC=C1NC2=NC(=NC=C2Cl)NC3=C(C=C(C=C3)N4CCOCC4)OC
Outline: as §1

defactinib = compound: CNC(=O)c1ccc(Nc2ncc(C(F)(F)F)c(NCc3nccnc3N(C)S(C)(=O)=O)n2)cc1 [defactinib]
Outline: as §1

[2] = compound: CNc1nc(-c2ccc3c(N)n[nH]c3c2)cc(N2C[C@@H](C(=O)NC3CCCCC3)CC[C@H]2C)n1
Outline: as §1

encorafenib = compound: COC(=O)N[C@@H](C)CNc1nccc(-c2cn(C(C)C)nc2-c2cc(Cl)cc(NS(C)(=O)=O)c2F)n1 [encorafenib]
Outline: as §1

[3] = compound: COC(=O)[C@H](CCSC)NC(=O)C1=C(C=C(C=C1)NC[C@H](CS)N)C2=CC=CC=C2
Outline: as §1

alisertib = compound: COc1cc(Nc2ncc3c(n2)-c2ccc(Cl)cc2C(c2c(F)cccc2OC)=NC3)ccc1C(=O)O [alisertib]
Outline: as §1

[4] = compound: COc1cc2nc(-c3cc(F)ccc3O)nc(N[C@@H]3CNC[C@H]3C(C)(C)O)c2cc1OC
Outline: as §1

gefitinib = compound: COc1cc2ncnc(Nc3ccc(F)c(Cl)c3)c2cc1OCCCN1CCOCC1 [gefitinib]
Outline: as §1

lapatinib = compound: CS(=O)(=O)CCNCc1ccc(-c2ccc3ncnc(Nc4ccc(OCc5cccc(F)c5)c(Cl)c4)c3c2)o1 [lapatinib]
Outline: as §1

pictilisib = compound: CS(=O)(=O)N1CCN(Cc2cc3nc(-c4cccc5[nH]ncc45)nc(N4CCOCC4)c3s2)CC1 [pictilisib]
Outline: as §1

crizotinib = compound: C[C@@H](Oc1cc(-c2cnn(C3CCNCC3)c2)cnc1N)c1c(Cl)ccc(F)c1Cl [crizotinib]
Outline: as §1

[5] = compound: C[C@H](C1=CC=C(C=C1)C(=O)NC2=C3C=CNC3=NC=C2)N
Outline: as §1

duvelisib = compound: C[C@H](Nc1ncnc2nc[nH]c12)c1cc2cccc(Cl)c2c(=O)n1-c1ccccc1 [duvelisib]
Outline: as §1

gandotinib = compound: Cc1cc(Nc2cc(CN3CCOCC3)c3nc(C)c(Cc4ccc(Cl)cc4F)n3n2)n[nH]1 [gandotinib]
Outline: as §1

tozasertib = compound: Cc1cc(Nc2cc(N3CCN(C)CC3)nc(Sc3ccc(NC(=O)C4CC4)cc3)n2)n[nH]1 [tozasertib]
Outline: as §1

doramapimod = compound: Cc1ccc(-n2nc(C(C)(C)C)cc2NC(=O)Nc2ccc(OCCN3CCOCC3)c3ccccc23)cc1 [doramapimod]
Outline: as §1

bafetinib = compound: Cc1ccc(NC(=O)c2ccc(CN3CC[C@H](N(C)C)C3)c(C(F)(F)F)c2)cc1Nc1nccc(-c2cncnc2)n1 [bafetinib]
Outline: as §1

[6] = compound: Cc1cccc(CC(=O)N2CCc3c2ccc(-c2cn(C)c4ncnc(N)c24)c3F)n1
Outline: as §1

Measured: log2 fold change

MIPEP (UniProt Q99797)
inactive: alvocidib 0.027 | Tubastatin A 0.011 | [1] -0.03 | defactinib 0.025 | [2] -0.067 | encorafenib -0.012 | [3] 0.154 | alisertib -0.038 | [4] -0.009 | gefitinib -0.007 | lapatinib -0.013 | pictilisib -0.031 | crizotinib 0.041 | [5] -0.004 | duvelisib -0.022 | gandotinib -0.049 | tozasertib 0.072 | doramapimod -0.059 | bafetinib 0.016 | [6] 0.04

MIA3 (UniProt Q5JRA6)
inactive: alvocidib -0.006 | Tubastatin A -0.076 | [1] 0.003 | defactinib 0.001 | [2] -0.005 | encorafenib 0.038 | [3] -0.119 | alisertib -0.014 | [4] 0.057 | gefitinib 0.003 | lapatinib -0.009 | pictilisib -0.045 | crizotinib 0.04 | [5] 0.024 | duvelisib 0.005 | gandotinib -0.07 | tozasertib 0.05 | doramapimod -0.001 | bafetinib 0.021 | [6] -0.02

MIOS (UniProt Q9NXC5)
inactive: alvocidib -0.023 | Tubastatin A -0.036 | [1] -0.018 | defactinib -0.003 | [2] -0.029 | encorafenib 0.015 | [3] -0.021 | alisertib 0.006 | [4] 0.007 | gefitinib 0.043 | lapatinib 0.002 | pictilisib -0.011 | crizotinib -0.018 | [5] -0.015 | duvelisib 0.012 | gandotinib 0.023 | tozasertib 0.028 | doramapimod 0.034 | bafetinib -0.027 | [6] 0.055

MOCOS (UniProt Q96EN8)
inactive: alvocidib 0.009 | Tubastatin A -0.026 | [1] 0.018 | defactinib 0.095 | [2] 0.058 | encorafenib -0.046 | [3] -0.023 | alisertib 0.007 | [4] 0.005 | gefitinib -0.027 | lapatinib -0.004 | pictilisib -0.034 | crizotinib -0.049 | [5] -0.034 | duvelisib 0.013 | gandotinib 0.053 | tozasertib 0.055 | doramapimod 0.066 | bafetinib -0.019 | [6] -0.016

MICU2 (UniProt Q8IYU8)
active: gandotinib -0.264
inactive: alvocidib 0.03 | Tubastatin A -0.039 | [1] 0.01 | defactinib 0.003 | [2] 0.009 | encorafenib 0.015 | [3] -0.091 | alisertib 0.039 | [4] -0.128 | gefitinib -0.054 | lapatinib -0.057 | pictilisib 0.036 | crizotinib -0.043 | [5] 0.026 | duvelisib 0.015 | tozasertib 0.083 | doramapimod 0.029 | bafetinib -0.056 | [6] 0.029

MORF4L1 isoform 2 (UniProt Q9UBU8)
active: [2] 0.247
inactive: alvocidib -0.01 | Tubastatin A 0.001 | [1] -0.001 | defactinib -0.005 | encorafenib -0.023 | [3] -0.021 | alisertib 0.045 | [4] 0.044 | gefitinib 0.008 | lapatinib 0.024 | pictilisib 0.023 | crizotinib 0.025 | [5] -0.058 | duvelisib 0.021 | gandotinib 0.037 | tozasertib -0.019 | doramapimod -0.047 | bafetinib -0.01 | [6] 0.006

2 successive entries from above, quoted:
MIA3 (UniProt Q5JRA6)
inactive: alvocidib -0.006 | Tubastatin A -0.076 | [1] 0.003 | defactinib 0.001 | [2] -0.005 | encorafenib 0.038 | [3] -0.119 | alisertib -0.014 | [4] 0.057 | gefitinib 0.003 | lapatinib -0.009 | pictilisib -0.045 | crizotinib 0.04 | [5] 0.024 | duvelisib 0.005 | gandotinib -0.07 | tozasertib 0.05 | doramapimod -0.001 | bafetinib 0.021 | [6] -0.02

MIOS (UniProt Q9NXC5)
inactive: alvocidib -0.023 | Tubastatin A -0.036 | [1] -0.018 | defactinib -0.003 | [2] -0.029 | encorafenib 0.015 | [3] -0.021 | alisertib 0.006 | [4] 0.007 | gefitinib 0.043 | lapatinib 0.002 | pictilisib -0.011 | crizotinib -0.018 | [5] -0.015 | duvelisib 0.012 | gandotinib 0.023 | tozasertib 0.028 | doramapimod 0.034 | bafetinib -0.027 | [6] 0.055

(continued)

MRPL14 (UniProt Q6P1L8)
inactive: alvocidib 0.096 | Tubastatin A -0.089 | [1] -0.015 | defactinib -0.156 | [2] -0.029 | encorafenib -0.044 | [3] -0.16 | alisertib -0.02 | [4] -0.046 | gefitinib 0.068 | lapatinib 0.033 | pictilisib -0.02 | crizotinib -0.028 | [5] -0.012 | duvelisib 0.024 | gandotinib -0.034 | tozasertib 0.016 | doramapimod 0.001 | bafetinib -0.009 | [6] 0.116

MGST1 (UniProt P10620)
inactive: alvocidib 0.033 | Tubastatin A -0.011 | [1] 0.07 | defactinib 0.02 | [2] 0.038 | encorafenib 0.007 | [3] 0.001 | alisertib 0.009 | [4] 0.023 | gefitinib -0.066 | lapatinib -0.047 | pictilisib 0.018 | crizotinib 0.003 | duvelisib 0.013 | gandotinib -0.025 | tozasertib -0.011 | doramapimod -0.041 | bafetinib -0.032 | [6] -0.016
active: [5] 0.22

MGME1 (UniProt Q9BQP7)
inactive: alvocidib -0.017 | Tubastatin A 0.066 | [1] -0.019 | defactinib -0.022 | [2] 0.005 | encorafenib -0.008 | [3] -0.032 | alisertib -0.027 | [4] 0.012 | gefitinib -0.009 | lapatinib 0.002 | pictilisib -0.01 | crizotinib -0.005 | [5] 0.005 | duvelisib 0.016 | gandotinib 0.014 | tozasertib 0.01 | doramapimod -0.017 | bafetinib 0.006 | [6] -0.022

MPLKIP (UniProt Q8TAP9)
inactive: alvocidib -0.005 | Tubastatin A -0.004 | [1] -0.018 | defactinib -0.045 | [2] -0.07 | encorafenib -0.033 | [3] -0.046 | alisertib 0.044 | [4] 0.029 | gefitinib 0.115 | lapatinib -0.011 | pictilisib 0.083 | crizotinib -0.015 | [5] -0.161 | duvelisib 0.074 | gandotinib 0.144 | tozasertib -0.02 | doramapimod 0.046 | bafetinib 0.009 | [6] 0.096

MGA (UniProt Q8IWI9)
inactive: alvocidib -0.083 | Tubastatin A 0.031 | [1] 0 | defactinib -0.049 | [2] 0.12 | encorafenib 0.055 | [3] -0.068 | alisertib -0.156 | [4] 0.094 | gefitinib 0.061 | lapatinib -0.096 | pictilisib 0.017 | crizotinib -0.053 | [5] -0.066 | duvelisib 0.057 | gandotinib 0.042 | tozasertib -0.038 | doramapimod 0.03 | bafetinib -0.318 | [6] -0.002

MIEF1 (UniProt L0R8F8)
inactive: alvocidib 0.039 | Tubastatin A 0.047 | [1] -0.014 | defactinib 0.012 | [2] 0.071 | encorafenib -0.032 | [3] 0.038 | alisertib 0.045 | [4] 0.061 | gefitinib 0.097 | lapatinib 0.017 | pictilisib -0.051 | crizotinib -0.017 | [5] 0.143 | duvelisib -0.015 | gandotinib -0.102 | tozasertib -0.058 | doramapimod 0.028 | bafetinib 0.064 | [6] -0.065

MORC2 (UniProt Q9Y6X9)
inactive: alvocidib 0.018 | Tubastatin A -0.095 | [1] 0 | defactinib 0.013 | [2] -0.012 | encorafenib 0.02 | [3] 0.025 | alisertib 0.001 | [4] -0.008 | gefitinib -0.02 | lapatinib 0.016 | pictilisib 0.015 | crizotinib -0.012 | [5] -0.049 | duvelisib 0.04 | gandotinib -0.032 | tozasertib 0.008 | doramapimod 0.012 | bafetinib -0.032 | [6] 0.043

MITD1 (UniProt Q8WV92)
inactive: alvocidib 0.021 | Tubastatin A 0.046 | [1] 0.044 | defactinib -0.038 | [2] -0.026 | encorafenib -0.04 | [3] 0.143 | alisertib 0.041 | [4] 0.018 | gefitinib 0.022 | lapatinib 0.003 | pictilisib -0.032 | crizotinib 0.046 | [5] 0.086 | duvelisib 0.055 | gandotinib 0.025 | tozasertib -0.015 | doramapimod -0.049 | bafetinib -0.118 | [6] -0.085

MOB3A (UniProt Q96BX8)
inactive: alvocidib 0.021 | Tubastatin A -0.021 | [1] 0.064 | defactinib -0.036 | [2] -0.002 | encorafenib 0.059 | [3] -0.075 | alisertib -0.014 | [4] -0.029 | gefitinib 0.015 | lapatinib -0.028 | pictilisib -0.027 | crizotinib 0.045 | [5] -0.064 | duvelisib 0.12 | gandotinib 0.013 | tozasertib 0.02 | doramapimod -0.046 | bafetinib 0.011 | [6] 0.049

MID1IP1 (UniProt Q9NPA3)
inactive: alvocidib 0.04 | Tubastatin A -0.11 | [1] 0.064 | defactinib 0.052 | [2] 0.029 | encorafenib 0.015 | [3] -0.071 | alisertib 0.007 | gefitinib 0.012 | pictilisib 0.008 | crizotinib -0.017 | [5] 0.037 | duvelisib 0.047 | gandotinib -0.029 | tozasertib 0.025 | doramapimod 0 | bafetinib -0.098 | [6] -0.044
